These results are taken from paper PMC10693084, “Novel 8-Methoxycoumarin-3-Carboxamides with potent anticancer activity against liver cancer via targeting caspase-3/7 and β-tubulin polymerization” (BMC Chemistry, 2023).

What is called IC50 is the concentration needed to halve the response being measured. Higher therefore signals weaker potency in that assay.

The assay has as its system human liver carcinoma HepG2 cells. The assay is described as follows: MTT cytotoxicity assay against HepG2 cells. The conditions noted are these: 24 h treatment. The format is cell-based. As to the method: To assess the antitumor properties of these compounds, we utilized the 3-(4,5-dimethylthiazol-2-yl)-2,5-diphenyl tetrazolium bromide (MTT) colorimetric assay, a widely used method to evaluate cell viability and cytotoxicity.
Following the incubation period, the cells were subjected to various concentrations of the prepared molecules and subsequently incubated for a duration of 24 h. […] Subsequently, a volume of 100 μL of dimethyl sulfoxide (DMSO) was introduced into each well in order to facilitate the dissolution of the purple formazan that had been generated. The quantification of the color intensity of the formazan product, which serves as an indicator of the cellular growth condition, is performed by employing an ELISA plate reader set at a wavelength of 570 nm. The experimental conditions were implemented with a minimum of three replicates, and the experiments were conducted on at least three separate occasions.
Background: Tetrazolium dyes change colour on reduction, which living cells bring about.

In the case of `CN[C@@H]1C[C@H]2O[C@@](C)([C@@H]1OC)n1c3ccccc3c3c4c(c5c6ccccc6n2c5c31)C(=O)NC4` [STU, staurosporine, reference compound], half-maximal inhibition (IC50) required 8.4 ± 0.51 µM.
